Experimental data reported in the supplement of paper PMC10849652.
The list shows a part of the results.

Chains of the proteins cited; added tags and fusions are not shown. Lines headed by an entry give the natural chain unless they say otherwise; changes in a name come on top.
UniProt O95822: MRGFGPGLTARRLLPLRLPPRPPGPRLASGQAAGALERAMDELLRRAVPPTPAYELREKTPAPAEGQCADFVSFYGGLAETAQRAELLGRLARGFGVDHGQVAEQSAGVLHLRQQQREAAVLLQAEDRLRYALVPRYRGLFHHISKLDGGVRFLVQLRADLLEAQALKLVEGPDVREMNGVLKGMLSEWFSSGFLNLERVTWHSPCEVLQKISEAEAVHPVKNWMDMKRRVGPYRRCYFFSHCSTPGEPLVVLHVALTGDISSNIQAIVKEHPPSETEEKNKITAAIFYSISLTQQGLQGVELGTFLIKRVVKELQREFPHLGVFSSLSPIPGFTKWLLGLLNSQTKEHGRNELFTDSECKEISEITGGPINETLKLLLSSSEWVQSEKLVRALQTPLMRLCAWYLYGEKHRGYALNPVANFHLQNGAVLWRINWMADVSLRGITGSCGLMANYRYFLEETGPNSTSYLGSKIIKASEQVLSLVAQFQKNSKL
UniProt Q9HC36: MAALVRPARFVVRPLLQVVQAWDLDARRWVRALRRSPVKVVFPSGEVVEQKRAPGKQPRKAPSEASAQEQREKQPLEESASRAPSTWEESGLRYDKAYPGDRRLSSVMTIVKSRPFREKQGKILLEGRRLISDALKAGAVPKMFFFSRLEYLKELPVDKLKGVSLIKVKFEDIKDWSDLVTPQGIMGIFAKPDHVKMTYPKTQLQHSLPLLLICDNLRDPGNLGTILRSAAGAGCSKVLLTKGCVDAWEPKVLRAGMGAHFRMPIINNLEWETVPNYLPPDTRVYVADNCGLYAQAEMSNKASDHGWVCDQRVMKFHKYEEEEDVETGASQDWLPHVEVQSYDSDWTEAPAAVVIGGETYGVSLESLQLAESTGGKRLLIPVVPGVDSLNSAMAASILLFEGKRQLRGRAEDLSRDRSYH
UniProt Q7RTP6, whole entry, looked up: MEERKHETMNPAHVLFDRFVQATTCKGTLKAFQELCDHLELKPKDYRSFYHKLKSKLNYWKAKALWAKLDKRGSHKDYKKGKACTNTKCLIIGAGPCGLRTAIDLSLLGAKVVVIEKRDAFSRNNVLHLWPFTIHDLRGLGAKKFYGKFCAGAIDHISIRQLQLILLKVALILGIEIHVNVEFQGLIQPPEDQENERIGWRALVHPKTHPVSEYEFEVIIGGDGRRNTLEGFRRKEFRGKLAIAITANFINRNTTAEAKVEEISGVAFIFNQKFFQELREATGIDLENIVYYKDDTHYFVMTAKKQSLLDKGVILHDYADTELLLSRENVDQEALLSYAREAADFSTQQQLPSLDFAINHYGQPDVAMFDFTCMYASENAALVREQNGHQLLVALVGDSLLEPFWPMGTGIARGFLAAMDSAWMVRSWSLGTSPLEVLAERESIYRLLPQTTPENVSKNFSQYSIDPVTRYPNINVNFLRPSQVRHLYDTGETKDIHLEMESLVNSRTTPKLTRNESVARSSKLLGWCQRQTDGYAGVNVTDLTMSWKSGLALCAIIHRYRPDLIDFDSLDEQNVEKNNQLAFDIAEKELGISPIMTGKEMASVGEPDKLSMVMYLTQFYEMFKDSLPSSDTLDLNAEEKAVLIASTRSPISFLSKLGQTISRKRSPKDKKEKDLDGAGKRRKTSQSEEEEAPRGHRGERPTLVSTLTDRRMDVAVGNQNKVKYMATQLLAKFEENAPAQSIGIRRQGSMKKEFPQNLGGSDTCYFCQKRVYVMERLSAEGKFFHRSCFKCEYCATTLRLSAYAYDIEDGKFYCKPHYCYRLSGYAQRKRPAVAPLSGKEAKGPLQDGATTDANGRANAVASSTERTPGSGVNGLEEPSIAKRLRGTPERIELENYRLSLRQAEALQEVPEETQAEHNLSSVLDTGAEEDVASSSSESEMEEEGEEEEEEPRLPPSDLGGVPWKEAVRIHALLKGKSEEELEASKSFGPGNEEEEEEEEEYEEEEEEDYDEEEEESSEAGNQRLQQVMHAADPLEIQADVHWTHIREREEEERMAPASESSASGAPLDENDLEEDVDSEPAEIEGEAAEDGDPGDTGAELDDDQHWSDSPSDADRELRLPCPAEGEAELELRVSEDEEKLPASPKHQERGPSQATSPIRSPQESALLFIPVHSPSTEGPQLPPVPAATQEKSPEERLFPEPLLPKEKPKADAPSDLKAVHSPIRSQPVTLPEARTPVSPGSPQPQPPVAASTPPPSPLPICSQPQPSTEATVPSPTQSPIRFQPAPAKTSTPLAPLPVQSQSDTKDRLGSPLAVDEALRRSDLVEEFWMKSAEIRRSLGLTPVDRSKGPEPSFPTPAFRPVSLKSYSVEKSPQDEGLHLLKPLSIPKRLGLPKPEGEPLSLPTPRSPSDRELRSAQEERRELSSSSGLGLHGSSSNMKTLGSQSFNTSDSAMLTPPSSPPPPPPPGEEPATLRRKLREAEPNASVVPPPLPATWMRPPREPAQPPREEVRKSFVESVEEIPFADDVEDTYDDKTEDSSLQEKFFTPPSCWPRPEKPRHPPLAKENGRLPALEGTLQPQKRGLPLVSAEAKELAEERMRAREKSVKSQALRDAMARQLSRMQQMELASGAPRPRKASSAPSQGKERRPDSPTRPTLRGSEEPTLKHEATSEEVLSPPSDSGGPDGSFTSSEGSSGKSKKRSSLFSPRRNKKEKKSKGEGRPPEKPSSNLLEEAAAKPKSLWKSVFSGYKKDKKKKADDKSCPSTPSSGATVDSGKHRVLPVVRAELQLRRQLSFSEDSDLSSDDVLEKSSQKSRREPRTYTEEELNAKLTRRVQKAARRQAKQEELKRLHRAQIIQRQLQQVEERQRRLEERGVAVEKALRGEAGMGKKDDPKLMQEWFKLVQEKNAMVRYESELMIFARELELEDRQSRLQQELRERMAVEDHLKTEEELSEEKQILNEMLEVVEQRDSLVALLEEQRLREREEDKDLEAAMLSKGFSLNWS
UniProt Q9UL63, whole entry, looked up: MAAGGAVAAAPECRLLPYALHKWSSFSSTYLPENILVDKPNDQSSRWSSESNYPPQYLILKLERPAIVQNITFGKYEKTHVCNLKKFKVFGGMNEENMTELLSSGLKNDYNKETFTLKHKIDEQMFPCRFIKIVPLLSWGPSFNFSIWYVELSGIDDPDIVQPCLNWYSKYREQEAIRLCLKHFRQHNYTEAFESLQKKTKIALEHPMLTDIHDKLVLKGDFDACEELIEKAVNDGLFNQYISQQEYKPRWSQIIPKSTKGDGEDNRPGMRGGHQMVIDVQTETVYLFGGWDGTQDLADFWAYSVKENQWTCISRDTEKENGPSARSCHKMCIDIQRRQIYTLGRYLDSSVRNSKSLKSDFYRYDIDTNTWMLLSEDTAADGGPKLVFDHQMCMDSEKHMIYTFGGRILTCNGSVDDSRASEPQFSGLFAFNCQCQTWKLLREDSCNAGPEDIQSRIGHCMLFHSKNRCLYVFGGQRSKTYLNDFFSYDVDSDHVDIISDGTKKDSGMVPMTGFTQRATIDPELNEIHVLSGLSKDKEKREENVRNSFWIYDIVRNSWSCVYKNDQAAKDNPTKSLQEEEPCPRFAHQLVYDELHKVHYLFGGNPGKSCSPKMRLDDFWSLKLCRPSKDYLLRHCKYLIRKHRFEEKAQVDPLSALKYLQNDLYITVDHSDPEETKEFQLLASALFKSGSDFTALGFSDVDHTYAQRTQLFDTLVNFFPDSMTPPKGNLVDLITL
UniProt Q9Y3A3: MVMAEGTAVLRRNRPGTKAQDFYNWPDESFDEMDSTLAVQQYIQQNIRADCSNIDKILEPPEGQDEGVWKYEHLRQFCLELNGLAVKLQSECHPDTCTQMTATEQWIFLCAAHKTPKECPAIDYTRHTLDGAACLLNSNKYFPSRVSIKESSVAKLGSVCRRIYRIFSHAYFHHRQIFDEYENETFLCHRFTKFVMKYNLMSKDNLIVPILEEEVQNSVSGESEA
UniProt O95297: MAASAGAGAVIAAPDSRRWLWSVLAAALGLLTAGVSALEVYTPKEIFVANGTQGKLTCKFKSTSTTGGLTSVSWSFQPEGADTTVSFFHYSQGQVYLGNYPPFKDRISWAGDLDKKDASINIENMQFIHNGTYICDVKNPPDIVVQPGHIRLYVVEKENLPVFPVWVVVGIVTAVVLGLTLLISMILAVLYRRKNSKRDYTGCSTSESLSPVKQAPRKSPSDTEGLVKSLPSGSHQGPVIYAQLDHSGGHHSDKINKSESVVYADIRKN
UniProt Q9H8M7: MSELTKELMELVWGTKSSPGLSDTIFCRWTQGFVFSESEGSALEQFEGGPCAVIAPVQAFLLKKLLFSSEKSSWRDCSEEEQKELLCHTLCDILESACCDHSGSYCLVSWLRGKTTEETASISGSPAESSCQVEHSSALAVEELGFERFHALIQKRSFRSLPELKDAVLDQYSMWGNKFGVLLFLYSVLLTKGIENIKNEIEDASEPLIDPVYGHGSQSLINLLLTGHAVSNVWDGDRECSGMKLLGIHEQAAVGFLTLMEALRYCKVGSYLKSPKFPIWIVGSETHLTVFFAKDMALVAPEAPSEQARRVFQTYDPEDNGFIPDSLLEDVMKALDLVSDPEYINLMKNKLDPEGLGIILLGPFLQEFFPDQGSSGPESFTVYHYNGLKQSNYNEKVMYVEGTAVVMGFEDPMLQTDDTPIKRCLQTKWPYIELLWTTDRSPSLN

Experiments:
Assay in all cases: log2 fold change, soluble protein after heating vs DMSO (PISA); higher = thermal stabilisation; K562 cells, 10 uM, 30 min; active = over 0.2 and 3.5 SD of the protein, either way, in both replicates (recomputed)
[1] = compound: CC[C@@H]1C(=O)N(C)c2cnc(Nc3ccc(C(=O)NC4CCN(C)CC4)cc3OC)nc2N1C1CCCC1
How it was run: (§1)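 Quantification of soluble protein used TMTpro 16plex LC-MS/MS, with channel sums equalised. Samples were the supernatant after 21,000xg for 90 min of pooled aliquots from K562 cells (2×10^6 cells/mL) treated with 10 μM compound for 30 min, heated for 3 min over 48°C-58°C, and extracted in PBS with 0.5% NP-40 at 4°C. Values, from duplicates, describe thermal stability against control samples on a log2 fold-change scale.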

[2] = compound: CC[C@@H]1C(=O)N(C)c2cnc(Nc3ccc(C(=O)N[C@H]4CC[C@H](N5CCN(CC6CC6)CC5)CC4)cc3OC)nc2N1C(C)C [volasertib]
How it was run: as §1

[3] = compound: CC[C@H](C)N1C=C(C2=C(C=C(C=C21)C3=CN=C(C=C3)N4CCNCC4)C(=O)NCC5=C(C=C(NC5=O)C)C)C
How it was run: as §1

[4] = compound: CC[C@H](C)[C@@H](C(=O)N[C@@H]([C@@H](C)O)C(=O)N[C@@H](CC(C)C)C(=O)[C@]1(CO1)C)NC(=O)[C@H]([C@@H](C)CC)N(C)C(=O)C [epoxomicin]
How it was run: as §1

[5] = compound: CCn1c(C(=O)N(C2CC2)C2CC2)cc2c3c(ncn3C)c(Nc3cc(C)n(C)n3)nc21
How it was run: as §1

[6] = compound: CCn1cc(-c2ccnc3[nH]c(-c4cccc(CN(C)C)c4)cc23)c(-c2ccc(NC(=O)N(C)C)cc2)n1
How it was run: as §1

[7] = compound: CN(C)CC(=O)Nc1ccc2[nH]c(=O)c3ccccc3c2c1
How it was run: as §1

[8] = compound: CN(CCOC1=CC=C(C=C1)C[C@H]2C(=O)NC(=O)S2)C3=CC=CC=N3 (racemic) [rosiglitazone]
How it was run: as §1

[9] = compound: CN1C2=C(C3=C1C(=O)N(N=C3)CC4=CC(=CC=C4)N)SC(=C2)S(=O)C
How it was run: as §1

[10] = compound: CN1CCC(CNc2ccc3ncc(-c4cccc(OC(F)(F)F)c4)n3n2)CC1
How it was run: as §1

[11] = compound: CN1CCN(CCOc2cc(OC3CCOCC3)c3c(Nc4c(Cl)ccc5c4OCO5)ncnc3c2)CC1 [saracatinib]
How it was run: as §1

[12] = compound: CN1CCN(c2nc(C3=C(c4c[nH]c5ccccc45)C(=O)NC3=O)c3ccccc3n2)CC1 [sotrastaurin]
How it was run: as §1

[13] = compound: CN1CC[C@H](c2c(O)cc(O)c3c(=O)cc(-c4ccccc4Cl)oc23)[C@H](O)C1 [alvocidib]
How it was run: as §1

[14] = compound: CN1CCc2c(c3ccccc3n2Cc2ccc(C(=O)NO)cc2)C1 [Tubastatin A]
How it was run: as §1

[15] = compound: CNC(=O)C1=CC=CC=C1NC2=NC(=NC=C2Cl)NC3=C(C=C(C=C3)N4CCOCC4)OC
How it was run: as §1

[16] = compound: CNC(=O)c1ccc(Nc2ncc(C(F)(F)F)c(NCc3nccnc3N(C)S(C)(=O)=O)n2)cc1 [defactinib]
How it was run: as §1

[17] = compound: CNCc1ccc(-c2[nH]c3cc(F)cc4c3c2CCNC4=O)cc1 [rucaparib]
How it was run: as §1

[18] = compound: CNc1nc(-c2ccc3c(N)n[nH]c3c2)cc(N2C[C@@H](C(=O)NC3CCCCC3)CC[C@H]2C)n1
How it was run: as §1

[19] = compound: COC(=O)N[C@@H](C)CNc1nccc(-c2cn(C(C)C)nc2-c2cc(Cl)cc(NS(C)(=O)=O)c2F)n1 [encorafenib]
How it was run: as §1

[20] = compound: COC(=O)[C@H](CCSC)NC(=O)C1=C(C=C(C=C1)NC[C@H](CS)N)C2=CC=CC=C2
How it was run: as §1

Measured: log2 fold change

MLYCD (UniProt O95822)
inactive: [1] 0.051 | [2] 0.037 | [3] 0.05 | [4] -0.031 | [5] 0.022 | [6] 0.025 | [7] -0.055 | [8] -0.023 | [9] 0.04 | [10] -0.067 | [11] 0.056 | [12] -0.006 | [13] -0.058 | [14] -0.008 | [15] 0 | [16] -0.021 | [17] -0.065 | [18] -0.011 | [19] -0.003 | [20] 0.022

MRM3 (UniProt Q9HC36)
inactive: [1] 0.122 | [2] 0.3 | [3] 0.012 | [4] -0.287 | [5] 0.087 | [6] 0.165 | [7] -0.08 | [8] -0.258 | [9] 0.383 | [10] 0.198 | [11] -0.094 | [12] -0.01 | [13] 0.191 | [14] 0.201 | [15] 0.052 | [16] 0.39 | [17] 0.271 | [18] 0.13 | [19] 0.148 | [20] -0.053

MICAL3 (UniProt Q7RTP6)
inactive: [1] 0.036 | [2] -0.103 | [3] 0.017 | [4] -0.017 | [5] -0.054 | [6] -0.011 | [7] 0.027 | [8] 0.106 | [9] -0.007 | [10] -0.102 | [11] 0 | [12] -0.028 | [13] 0.118 | [14] 0.017 | [15] 0.059 | [16] -0.077 | [17] 0.025 | [18] 0.012 | [19] 0.029 | [20] -0.011

MRPL12 (UniProt P52815)
inactive: [1] 0.021 | [2] 0.056 | [3] -0.062 | [4] 0.231 | [5] 0.033 | [6] 0.134 | [7] -0.042 | [8] -0.001 | [9] -0.014 | [10] 0.183 | [11] -0.01 | [12] -0.024 | [13] -0.014 | [14] 0.039 | [15] 0.022 | [16] 0.006 | [17] -0.11 | [18] -0.007 | [19] 0.069 | [20] -0.069

MRPL24 (UniProt Q96A35)
inactive: [1] 0.02 | [2] 0.24 | [3] 0.136 | [4] -0.027 | [5] -0.039 | [6] -0.186 | [7] -0.012 | [8] -0.006 | [9] 0.067 | [10] 0.04 | [11] -0.14 | [12] -0.029 | [13] 0.124 | [14] 0.054 | [15] -0.066 | [16] 0.208 | [17] 0.039 | [18] 0.17 | [19] 0.027 | [20] -0.033

MRPL43 isoform 4 (UniProt Q8N983)
inactive: [1] 0.096 | [2] 0.186 | [3] -0.051 | [4] -0.061 | [5] 0.015 | [6] 0.108 | [7] -0.013 | [8] -0.036 | [9] 0.174 | [10] 0.108 | [11] -0.136 | [12] 0.043 | [13] 0.088 | [14] 0.122 | [15] -0.004 | [16] 0.18 | [17] 0.084 | [18] 0.108 | [19] 0.108 | [20] -0.057

Looked up one by one from the entries so far (2):
MRM3 (UniProt Q9HC36)
inactive: [1] 0.122 | [2] 0.3 | [3] 0.012 | [4] -0.287 | [5] 0.087 | [6] 0.165 | [7] -0.08 | [8] -0.258 | [9] 0.383 | [10] 0.198 | [11] -0.094 | [12] -0.01 | [13] 0.191 | [14] 0.201 | [15] 0.052 | [16] 0.39 | [17] 0.271 | [18] 0.13 | [19] 0.148 | [20] -0.053

MRPL43 isoform 4 (UniProt Q8N983)
inactive: [1] 0.096 | [2] 0.186 | [3] -0.051 | [4] -0.061 | [5] 0.015 | [6] 0.108 | [7] -0.013 | [8] -0.036 | [9] 0.174 | [10] 0.108 | [11] -0.136 | [12] 0.043 | [13] 0.088 | [14] 0.122 | [15] -0.004 | [16] 0.18 | [17] 0.084 | [18] 0.108 | [19] 0.108 | [20] -0.057

The list continues:

MRPL4 (UniProt Q9BYD3)
inactive: [1] 0.057 | [2] 0.164 | [3] -0.03 | [4] -0.005 | [5] -0.076 | [6] 0.023 | [7] -0.035 | [8] -0.059 | [9] 0.171 | [10] 0.08 | [11] -0.08 | [12] -0.158 | [13] 0.12 | [14] 0.116 | [15] -0.027 | [16] 0.182 | [17] 0.119 | [18] 0.148 | [19] 0.08 | [20] -0.016

MRPL18 (UniProt Q9H0U6)
inactive: [1] 0.03 | [2] 0.046 | [3] 0.081 | [4] 0.025 | [5] 0 | [6] 0 | [7] 0.063 | [8] -0.061 | [9] 0.065 | [10] 0.147 | [11] -0.093 | [12] -0.058 | [13] -0.14 | [14] 0.105 | [15] 0.078 | [16] 0.125 | [17] 0.166 | [18] 0.048 | [19] 0.051 | [20] -0.2

MKLN1 (UniProt Q9UL63)
inactive: [1] 0.009 | [2] -0.089 | [3] 0.024 | [4] 0.021 | [5] -0.003 | [6] 0.005 | [7] -0.025 | [8] 0.001 | [9] 0 | [10] 0.007 | [11] 0.029 | [12] -0.051 | [13] 0.028 | [14] 0.014 | [15] 0.049 | [16] 0.008 | [17] -0.008 | [18] -0.037 | [19] 0.025 | [20] 0.007

MOB4 (UniProt Q9Y3A3)
inactive: [1] 0.091 | [2] -0.032 | [3] 0.008 | [4] 0.002 | [5] -0.035 | [6] -0.005 | [7] 0.019 | [8] 0.018 | [9] -0.035 | [10] 0.03 | [11] 0.082 | [12] 0.014 | [13] -0.06 | [14] -0.063 | [15] -0.003 | [16] -0.065 | [17] -0.049 | [18] 0.004 | [19] 0.051 | [20] 0.025

MRPL40 (UniProt Q9NQ50)
inactive: [1] 0.125 | [2] 0.282 | [3] 0.009 | [4] 0.002 | [5] 0.023 | [6] -0.035 | [7] -0.114 | [8] -0.07 | [9] 0.051 | [10] 0.076 | [11] -0.17 | [12] 0.012 | [13] 0.005 | [14] 0.023 | [15] -0.009 | [16] 0.129 | [17] 0.071 | [18] 0.078 | [19] 0.005 | [20] 0

MRPL55 isoform 2 (UniProt Q7Z7F7)
inactive: [1] 0.004 | [2] 0.252 | [3] 0.103 | [4] 0.074 | [5] -0.029 | [6] 0.052 | [7] -0.013 | [8] 0.056 | [9] 0.009 | [10] 0.074 | [11] -0.02 | [12] -0.112 | [13] -0.015 | [14] 0.075 | [15] -0.003 | [16] 0.124 | [17] 0.122 | [18] 0.112 | [19] 0.091 | [20] -0.05

MPZL1 (UniProt O95297)
inactive: [1] 0.123 | [2] 0.13 | [3] -0.025 | [4] -0.019 | [5] 0.02 | [6] -0.027 | [7] -0.049 | [8] -0.025 | [9] -0.051 | [10] 0.004 | [11] -0.013 | [12] 0.095 | [13] 0.037 | [14] -0.043 | [15] -0.051 | [16] 0.003 | [17] 0.033 | [18] 0.027 | [19] -0.026 | [20] 0.027

MINDY3 (UniProt Q9H8M7)
inactive: [1] 0.052 | [2] -0.061 | [3] 0.077 | [4] -0.01 | [5] -0.008 | [6] -0.017 | [7] -0.018 | [8] 0.042 | [9] -0.063 | [10] 0.018 | [11] 0.035 | [12] 0.072 | [13] -0.011 | [14] 0.058 | [15] -0.047 | [16] 0.005 | [17] -0.013 | [18] 0.039 | [19] -0.028 | [20] 0.044

MKI67 (UniProt P46013)
inactive: [1] -0.053 | [2] -0.283 | [3] -0.032 | [4] -0.097 | [5] 0.029 | [6] 0.092 | [7] 0.026 | [8] -0.086 | [9] 0.094 | [10] -0.087 | [11] -0.042 | [12] 0.073 | [13] 0.112 | [14] -0.018 | [15] 0.007 | [16] 0.024 | [17] 0.105 | [18] 0.115 | [19] -0.037 | [20] 0.037

MRPL2 (UniProt Q5T653)
inactive: [1] 0.02 | [2] 0.138 | [3] 0.019 | [4] 0.087 | [5] -0.115 | [6] -0.034 | [7] -0.063 | [8] -0.031 | [9] 0.059 | [10] 0.079 | [11] -0.198 | [12] -0.072 | [13] 0.114 | [14] 0.113 | [15] 0.033 | [16] 0.189 | [17] 0.146 | [18] 0.143 | [19] 0.105 | [20] 0.013
